Test results reported in publication PMC12898535.

Sequences of proteins named here, by UniProt entry; tags and fusion partners are left off.
UniProt O88271: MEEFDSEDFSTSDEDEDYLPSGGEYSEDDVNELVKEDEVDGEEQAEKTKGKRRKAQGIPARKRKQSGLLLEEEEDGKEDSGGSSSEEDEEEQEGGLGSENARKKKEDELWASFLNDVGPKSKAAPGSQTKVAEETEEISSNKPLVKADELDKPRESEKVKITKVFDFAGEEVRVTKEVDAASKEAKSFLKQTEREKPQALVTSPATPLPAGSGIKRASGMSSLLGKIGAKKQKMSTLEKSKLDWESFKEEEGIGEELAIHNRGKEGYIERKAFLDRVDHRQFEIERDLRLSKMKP
UniProt P28740: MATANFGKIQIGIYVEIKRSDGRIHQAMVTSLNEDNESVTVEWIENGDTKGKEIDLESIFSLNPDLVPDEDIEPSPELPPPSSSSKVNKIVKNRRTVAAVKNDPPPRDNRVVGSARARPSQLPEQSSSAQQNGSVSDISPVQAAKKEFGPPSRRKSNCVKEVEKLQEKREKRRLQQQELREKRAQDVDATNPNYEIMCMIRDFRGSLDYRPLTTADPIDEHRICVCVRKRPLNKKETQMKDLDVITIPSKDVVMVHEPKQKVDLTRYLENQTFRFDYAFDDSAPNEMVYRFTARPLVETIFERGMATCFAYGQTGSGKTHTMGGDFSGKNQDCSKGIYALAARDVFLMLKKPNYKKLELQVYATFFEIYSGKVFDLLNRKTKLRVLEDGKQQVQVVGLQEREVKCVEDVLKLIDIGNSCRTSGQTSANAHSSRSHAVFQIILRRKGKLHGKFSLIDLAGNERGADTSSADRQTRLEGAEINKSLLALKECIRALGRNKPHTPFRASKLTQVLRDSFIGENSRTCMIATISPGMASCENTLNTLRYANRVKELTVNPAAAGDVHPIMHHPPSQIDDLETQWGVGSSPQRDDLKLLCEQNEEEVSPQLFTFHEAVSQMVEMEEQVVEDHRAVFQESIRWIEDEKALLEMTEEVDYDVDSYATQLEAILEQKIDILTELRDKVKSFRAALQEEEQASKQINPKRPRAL

B1: RCC1 (protein, UniProt Q8VE37 1-421)
chain: MPPKRIAKRRSPPEDAIPKSKKVKVSHRSHNTEPGLVLTLGQGDVGQLGLGESVLERKKPALVPLLQDVVQAEAGGMHTVCLSQSGQVYSFGCNDEGALGRDTSVEGSEMVPGKVELQEKVVQVSAGDSHTAALTEDGRVFLWGSFRDNNGVIGLLEPMKKSMVPVQVQLDAPVVKVASGNDHLVMLTNDGDLYTLGCGEQGQLGRVPELFANRGGRQGLGRLLVPRCVLLKSRGTRGRVRFQDAFCGAYFTFAISREGHVYGFGLSNYHQLGTPGTGSCFIPQNLTSFKNSTKSWVGFSGGQHHTVCMDSEGKAYSLGRAEYGRLGLGEGAEEKSIPTLISRLPVVSSVACGASVGYAVSKDGRVFAWGMGTNYQLGTGQDEDAWSPVEMTGKQLENRVVLTVSSGGQHTVLLVKDQAQS
B2: Kif2c/MCAK (protein, UniProt Q922S8 1-721)
chain: MESLHARLFPGLSINIQRSNGLIHPANISTVNVEKSCVSVEWIEGGTTKGKEIDIDDVAAINPELLQLLPLRPKDSLPLQENVTVPKQKRKSVNSKIPALKEGLRSRSTRMSTVSEVRIPAQENEMEVELPVPTNSRKQFAIPSHPRASCSTVTELPLLMVSEEAEEQAHSTRSTSSANPGNSVRRKSCIVKEMEKMKNKREEKRAQNSELRIKRAQEYDSSFPNWEFARMIKEFRVTMECSPLTVTDPIEEHRICVCVRKRPLNKQELAKKEIDVISVPSKCLLLVHEPKLKVDLTKYLENQAFCFDFAFDETASNEVVYRFTARPLVQTIFEGGKATCFAYGQTGSGKTHTMGGDLSGKSQNASKGIYAMASRDVFLLKNQPRYRNLNLEVYVTFFEIYNGKVFDLLNKKAKLRVLEDSRQQVQVVGLQEYLVTCADDVIKMINMGSACRTSGQTFANSNSSRSHACFQILLRTKGRLHGKFSLVDLAGNERGADTSSADRQTRMEGAEINKSLLALKECIRALGQNKAHTPFRESKLTQVLRDSFIGENSRTCMIAMISPGISSCEYTLNTLRYADRVKELSPHSGPSGEQPVQMETEVMEASSNGTSLTGNEEEELSSQMSSFNEAMTQIRELEERALEELREIIQQGPNWLELSEMTDQPDYDLETFVNKAESALTQQAKQAKHFSALREVIKALRLAMQLEEQASKQINSKKRHQ

Molecular target: 3xFLAG-tagged CFDP1 (mouse) (UniProt O88271)
Assay: affinity purification with mass spectrometry; nuclear extracts of NIH3T3 cells stably expressing 3xFLAG-CFDP1; FLAG M2 magnetic beads, ~16 h at 4 °C; wash 1x TBS, 0.05% Triton X-100; elution with 3xFLAG peptide; SDS-PAGE and mass spectrometry

Molecule	binding
Kif2a (from UniProt P28740 1-705)	binds
TPX2 (NIH3T3) (from UniProt A2APB8 1-745)	binds
B1	binds
B2	binds

No constants are given. Whether binding was seen depends on the method and setting. In cells and extracts the contact can be indirect. A yes stands for co-enrichment or nearness to the bait. Other partners may have been found.
